Source: publication PMC8402394
These are yes or no findings as the source states them, for the method shown.

Target: RvPLA2 (acidic phospholipase A2 Daboia siamensis) (Daboia siamensis) (UniProt P31100)
Experiment: SDS-PAGE under non-reducing and reducing conditions; both purified

## RvPLA2 (acidic phospholipase A2 Daboia siamensis) (from UniProt P31100 17-138) (enzyme)
  binding: no binding
